Substitutions are numbered along the chain they refer to. These are yes or no findings as the source states them, for the method shown. Some entries that bind do so weakly or less than the wild type.
B1: BBB00697 (VHH)
VHH: EVQLVESGGGSVQPGGSLRLSCTASGRTHNYAMGWFRQAPGKNREFVATIDWKDGSSYYLDSVRGRFTIERDDAKNTVYLQMNSLRPEDAAVYTCAVGDGDYCSTYTCAAEVEYDYWGQGTLVTVSS
B2: BBB00729 (VHH)
VHH: B1 VHH with H29F, Y116H
B3: BBB00698 (VHH)
VHH: B1 VHH with H29F, N30H
B4: BBB00718 (VHH)
VHH: B1 VHH with H29F, S104H
B5: BBB00709 (VHH)
VHH: B1 VHH with H29F, G55H
B6: BBB00710 (VHH)
VHH: B1 VHH with H29F, S56H
B7: BBB00704 (VHH)
VHH: B1 VHH with H29F, I50H

target: recombinant human TfR (2474-TR, R&D Systems), biotinylated (human) (UniProt P02786); assay: SPR (Biacore), biotinylated human TfR on SA chip, off rates at pH7.4 and pH5.5

binding, binds:
B1
B2
B3
B4
B5
B6
B7

From US20260274981A1
